Measured values reported in patent US7026466B1, “Serotonin-gated anion channel” (Massachusetts Institute of Technology, priority 1999, dated 2006).

Amino acid sequences for entries named in this document (tags omitted). A change or cut given only in a name is not applied to a line headed by its entry.
UniProt Q9GQ00: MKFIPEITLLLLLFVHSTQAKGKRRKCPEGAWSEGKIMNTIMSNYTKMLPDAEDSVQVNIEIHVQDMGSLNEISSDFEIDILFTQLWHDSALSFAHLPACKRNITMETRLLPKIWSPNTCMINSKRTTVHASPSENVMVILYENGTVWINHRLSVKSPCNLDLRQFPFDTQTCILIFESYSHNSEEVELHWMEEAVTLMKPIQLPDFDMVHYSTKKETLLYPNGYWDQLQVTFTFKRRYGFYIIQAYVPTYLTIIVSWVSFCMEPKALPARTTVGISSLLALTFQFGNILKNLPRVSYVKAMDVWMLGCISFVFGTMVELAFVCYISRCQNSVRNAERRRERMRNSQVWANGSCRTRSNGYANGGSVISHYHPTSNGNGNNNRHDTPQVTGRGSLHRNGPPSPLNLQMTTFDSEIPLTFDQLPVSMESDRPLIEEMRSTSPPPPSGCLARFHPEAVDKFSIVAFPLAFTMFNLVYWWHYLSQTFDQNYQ

Target: MOD-1 channel (Caenorhabditis elegans, UniProt Q9GQ00)
Experiment: Voltage clamp of MOD-1 heterologously expressed in Xenopus oocytes or HEK cells
Format: cell-based, C. elegans

CN1CCN2c3ccccc3Cc3ccccc3C2C1 (stereo not shown) [mianserin] gave a Ki of about 19 µM.
